No constants are given. Whether binding was seen depends on the method and setting. Binding seen in cells or lysates may run through a third protein. Here binding means that the protein was enriched with, or labelled near, the bait; the list need not be complete.
Target: RPM-1::GFP (fusion protein of Regulator of Presynaptic Morphology 1 and GFP) (C. elegans) (UniProt Q17551)
Assay: affinity purification with mass spectrometry; RPM-1::GFP immunoprecipitated with anti-GFP antibody (3E6) from whole worm lysates (0.1% NP-40 lysis buffer, 10 mM Tris pH 7.4, 150 mM NaCl, 1 mM DTT); coprecipitating proteins identified by LC-MS/MS

Chains of the proteins cited; added tags and fusions are not shown.
UniProt Q17551: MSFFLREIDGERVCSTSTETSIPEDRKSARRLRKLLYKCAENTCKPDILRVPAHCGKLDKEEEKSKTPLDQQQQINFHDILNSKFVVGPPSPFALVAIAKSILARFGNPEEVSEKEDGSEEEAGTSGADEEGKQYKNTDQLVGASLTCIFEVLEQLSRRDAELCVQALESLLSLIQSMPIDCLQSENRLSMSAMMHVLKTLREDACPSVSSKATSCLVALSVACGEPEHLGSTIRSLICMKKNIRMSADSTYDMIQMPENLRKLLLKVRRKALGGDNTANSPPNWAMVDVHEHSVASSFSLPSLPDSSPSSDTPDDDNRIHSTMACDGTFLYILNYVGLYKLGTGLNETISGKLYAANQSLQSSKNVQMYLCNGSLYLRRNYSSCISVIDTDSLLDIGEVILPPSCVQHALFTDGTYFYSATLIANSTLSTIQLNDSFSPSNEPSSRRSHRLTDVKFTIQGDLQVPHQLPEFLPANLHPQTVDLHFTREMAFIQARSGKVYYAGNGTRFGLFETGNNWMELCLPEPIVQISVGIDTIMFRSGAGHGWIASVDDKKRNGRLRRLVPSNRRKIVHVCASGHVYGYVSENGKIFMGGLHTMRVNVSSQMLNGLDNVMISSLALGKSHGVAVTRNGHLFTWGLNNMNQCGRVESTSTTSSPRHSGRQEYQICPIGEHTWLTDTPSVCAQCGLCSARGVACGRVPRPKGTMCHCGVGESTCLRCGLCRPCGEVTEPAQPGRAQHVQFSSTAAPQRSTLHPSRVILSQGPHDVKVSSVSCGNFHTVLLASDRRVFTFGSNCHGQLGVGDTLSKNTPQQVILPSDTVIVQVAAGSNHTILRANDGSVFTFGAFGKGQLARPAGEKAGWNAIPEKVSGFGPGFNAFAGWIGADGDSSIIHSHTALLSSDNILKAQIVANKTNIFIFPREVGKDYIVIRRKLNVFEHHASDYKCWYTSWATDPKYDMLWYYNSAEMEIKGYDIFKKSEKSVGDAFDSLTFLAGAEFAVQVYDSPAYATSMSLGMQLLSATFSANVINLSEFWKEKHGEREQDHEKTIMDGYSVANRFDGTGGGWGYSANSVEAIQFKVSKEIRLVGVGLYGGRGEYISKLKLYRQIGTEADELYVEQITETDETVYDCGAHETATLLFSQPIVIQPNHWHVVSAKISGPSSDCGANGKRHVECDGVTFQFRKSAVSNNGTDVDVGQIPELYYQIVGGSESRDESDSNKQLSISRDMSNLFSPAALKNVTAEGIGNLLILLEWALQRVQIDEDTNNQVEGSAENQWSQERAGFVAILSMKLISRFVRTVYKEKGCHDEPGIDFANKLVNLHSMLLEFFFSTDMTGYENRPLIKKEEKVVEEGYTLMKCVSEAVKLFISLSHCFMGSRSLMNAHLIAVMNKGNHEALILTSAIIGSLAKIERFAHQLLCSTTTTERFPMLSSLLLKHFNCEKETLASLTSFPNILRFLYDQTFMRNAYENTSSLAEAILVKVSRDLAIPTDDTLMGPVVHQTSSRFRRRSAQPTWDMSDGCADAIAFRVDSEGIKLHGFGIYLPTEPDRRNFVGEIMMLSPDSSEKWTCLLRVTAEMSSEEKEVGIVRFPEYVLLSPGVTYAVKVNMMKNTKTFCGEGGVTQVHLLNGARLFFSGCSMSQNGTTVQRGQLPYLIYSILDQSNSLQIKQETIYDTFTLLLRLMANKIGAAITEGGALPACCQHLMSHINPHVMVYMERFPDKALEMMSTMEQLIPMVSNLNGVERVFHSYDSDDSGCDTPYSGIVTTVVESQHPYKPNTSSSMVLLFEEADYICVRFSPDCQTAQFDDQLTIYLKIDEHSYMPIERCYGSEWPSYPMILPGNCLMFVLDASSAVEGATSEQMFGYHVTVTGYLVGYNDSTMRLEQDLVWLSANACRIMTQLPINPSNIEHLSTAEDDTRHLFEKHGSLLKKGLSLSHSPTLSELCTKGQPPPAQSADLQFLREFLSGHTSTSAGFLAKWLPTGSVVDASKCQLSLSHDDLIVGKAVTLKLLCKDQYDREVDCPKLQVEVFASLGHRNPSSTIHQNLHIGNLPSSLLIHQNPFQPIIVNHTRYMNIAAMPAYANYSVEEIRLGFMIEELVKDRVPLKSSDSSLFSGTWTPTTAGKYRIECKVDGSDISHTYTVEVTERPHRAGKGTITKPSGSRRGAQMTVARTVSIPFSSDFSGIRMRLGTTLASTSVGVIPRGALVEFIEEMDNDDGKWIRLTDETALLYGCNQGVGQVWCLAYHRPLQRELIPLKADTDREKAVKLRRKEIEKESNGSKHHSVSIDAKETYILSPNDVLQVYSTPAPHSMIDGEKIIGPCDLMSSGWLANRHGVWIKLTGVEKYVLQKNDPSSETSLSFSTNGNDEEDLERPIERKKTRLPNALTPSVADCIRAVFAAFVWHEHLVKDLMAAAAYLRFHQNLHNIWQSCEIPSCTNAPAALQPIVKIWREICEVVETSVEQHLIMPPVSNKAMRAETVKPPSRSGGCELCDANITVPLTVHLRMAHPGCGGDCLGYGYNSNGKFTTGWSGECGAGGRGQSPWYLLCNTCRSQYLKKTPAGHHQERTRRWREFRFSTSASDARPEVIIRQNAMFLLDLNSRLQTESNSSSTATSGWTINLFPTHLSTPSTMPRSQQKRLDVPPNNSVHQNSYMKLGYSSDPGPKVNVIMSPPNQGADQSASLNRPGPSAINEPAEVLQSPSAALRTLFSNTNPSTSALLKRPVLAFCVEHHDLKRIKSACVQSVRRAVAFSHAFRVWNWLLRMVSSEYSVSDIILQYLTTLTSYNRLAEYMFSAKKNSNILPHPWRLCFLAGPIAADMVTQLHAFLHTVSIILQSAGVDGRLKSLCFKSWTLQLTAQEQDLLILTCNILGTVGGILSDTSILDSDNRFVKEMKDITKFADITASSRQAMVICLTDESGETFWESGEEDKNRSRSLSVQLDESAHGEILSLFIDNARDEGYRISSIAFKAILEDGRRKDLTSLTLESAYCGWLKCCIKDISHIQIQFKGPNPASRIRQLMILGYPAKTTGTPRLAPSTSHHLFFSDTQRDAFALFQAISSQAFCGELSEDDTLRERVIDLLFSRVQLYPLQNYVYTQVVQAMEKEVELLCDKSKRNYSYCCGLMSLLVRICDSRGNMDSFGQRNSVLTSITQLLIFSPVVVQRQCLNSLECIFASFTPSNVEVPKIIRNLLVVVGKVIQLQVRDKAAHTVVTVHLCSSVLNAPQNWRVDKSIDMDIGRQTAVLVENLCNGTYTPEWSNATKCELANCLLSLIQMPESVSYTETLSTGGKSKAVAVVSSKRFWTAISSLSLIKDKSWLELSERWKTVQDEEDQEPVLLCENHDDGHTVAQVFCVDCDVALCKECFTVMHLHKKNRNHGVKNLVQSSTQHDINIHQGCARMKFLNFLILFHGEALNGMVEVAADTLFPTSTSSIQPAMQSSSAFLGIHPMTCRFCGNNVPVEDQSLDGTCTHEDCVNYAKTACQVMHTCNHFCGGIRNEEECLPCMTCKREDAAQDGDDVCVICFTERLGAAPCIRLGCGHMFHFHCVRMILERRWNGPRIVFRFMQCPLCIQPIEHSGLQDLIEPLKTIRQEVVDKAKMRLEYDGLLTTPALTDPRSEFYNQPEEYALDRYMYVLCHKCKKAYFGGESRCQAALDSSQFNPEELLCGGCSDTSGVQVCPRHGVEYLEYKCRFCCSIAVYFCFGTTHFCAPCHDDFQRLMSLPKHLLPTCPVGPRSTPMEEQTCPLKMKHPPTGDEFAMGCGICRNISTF

B1: Protein Phosphatase Magnesium/Manganese dependent 2 (PPM-2), endogenous (enzyme, UniProt P49596 1-356)
chain: MGQTLSEPVTKKESASCANENYLVGSSCMQGWRVDMEDAHTHLLSLPDDPKCAFFAVYDGHGGSKVSQYSGINLHKKVVAQKEFSEGNMKEAIEKGFLELDQQMRVDEETKDDVSGTTAVVVLIKEGDVYCGNAGDSRAVSSVVGEARPLSFDHKPSHETEARRIIAAGGWVEFNRVNGNLALSRALGDFAFKNCDTKPAEEQIVTAFPDVITDKLTPDHEFIVLACDGIWDVMTNQEVVDFVREKLAEKRDPQSICEELLTRCLAPDCQMGGLGCDNMTVVLVGLLHGQSPDTLFTKCARPAVFTGVNNEDGDQNQIQQDISRVINNFDGEQRVNAANQEEEEDDNEPAPANFQV
modifications: N-myristoylation of glycine 2 (detected on a PPM-2 peptide by mass spectrometry)
binding: binds

— PMC4014440
